Source: the supplement of paper PMC12819154, “High-throughput peptide-centric local stability assay extends protein–ligand identification to membrane proteins, tissues and bacteria” (Nature Structural & Molecular Biology, 2025)
The list shows a part of the results. Small differences around the control level are noise.

Amino acid sequences for entries named in this document (tags omitted). A change or cut given only in a name is not applied to a line headed by its entry.
UniProt Q99733: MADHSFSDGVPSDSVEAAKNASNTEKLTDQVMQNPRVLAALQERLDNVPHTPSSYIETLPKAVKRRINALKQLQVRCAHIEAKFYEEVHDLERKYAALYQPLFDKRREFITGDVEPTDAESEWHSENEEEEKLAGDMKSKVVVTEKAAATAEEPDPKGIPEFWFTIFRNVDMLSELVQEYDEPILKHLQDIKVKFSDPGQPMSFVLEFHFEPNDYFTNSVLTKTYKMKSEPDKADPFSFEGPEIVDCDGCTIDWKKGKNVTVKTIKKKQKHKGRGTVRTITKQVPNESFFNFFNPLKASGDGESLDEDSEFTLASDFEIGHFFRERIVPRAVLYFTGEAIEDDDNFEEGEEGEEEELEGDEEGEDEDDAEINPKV
UniProt Q99613, whole entry: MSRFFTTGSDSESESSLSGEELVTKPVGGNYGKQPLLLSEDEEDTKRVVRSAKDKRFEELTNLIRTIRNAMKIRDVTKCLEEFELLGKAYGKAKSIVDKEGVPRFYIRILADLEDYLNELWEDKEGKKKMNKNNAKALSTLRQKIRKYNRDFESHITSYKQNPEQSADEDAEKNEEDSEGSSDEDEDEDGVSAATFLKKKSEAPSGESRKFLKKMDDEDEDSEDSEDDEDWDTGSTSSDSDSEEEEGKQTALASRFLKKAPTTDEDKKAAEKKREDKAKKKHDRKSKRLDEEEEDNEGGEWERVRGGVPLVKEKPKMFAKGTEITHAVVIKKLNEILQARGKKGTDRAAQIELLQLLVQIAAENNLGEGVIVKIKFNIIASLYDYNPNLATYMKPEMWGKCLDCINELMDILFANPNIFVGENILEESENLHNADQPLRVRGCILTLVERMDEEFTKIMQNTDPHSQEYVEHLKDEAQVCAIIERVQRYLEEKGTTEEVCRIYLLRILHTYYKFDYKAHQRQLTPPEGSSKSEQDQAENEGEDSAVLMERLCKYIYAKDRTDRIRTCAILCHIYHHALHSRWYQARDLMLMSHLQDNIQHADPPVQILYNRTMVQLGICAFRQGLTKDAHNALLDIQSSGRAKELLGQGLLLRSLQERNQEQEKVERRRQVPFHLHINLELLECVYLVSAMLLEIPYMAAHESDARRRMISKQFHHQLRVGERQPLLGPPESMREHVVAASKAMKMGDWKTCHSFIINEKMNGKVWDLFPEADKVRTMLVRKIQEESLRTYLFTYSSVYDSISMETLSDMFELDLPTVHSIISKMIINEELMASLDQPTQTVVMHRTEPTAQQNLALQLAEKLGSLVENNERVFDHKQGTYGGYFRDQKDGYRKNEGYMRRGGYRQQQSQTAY
UniProt Q9BU61: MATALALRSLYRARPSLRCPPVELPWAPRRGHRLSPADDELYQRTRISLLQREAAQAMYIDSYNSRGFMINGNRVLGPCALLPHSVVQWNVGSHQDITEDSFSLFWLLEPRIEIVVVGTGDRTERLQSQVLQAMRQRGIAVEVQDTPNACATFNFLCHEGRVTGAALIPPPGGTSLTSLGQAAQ
UniProt Q9BRG2: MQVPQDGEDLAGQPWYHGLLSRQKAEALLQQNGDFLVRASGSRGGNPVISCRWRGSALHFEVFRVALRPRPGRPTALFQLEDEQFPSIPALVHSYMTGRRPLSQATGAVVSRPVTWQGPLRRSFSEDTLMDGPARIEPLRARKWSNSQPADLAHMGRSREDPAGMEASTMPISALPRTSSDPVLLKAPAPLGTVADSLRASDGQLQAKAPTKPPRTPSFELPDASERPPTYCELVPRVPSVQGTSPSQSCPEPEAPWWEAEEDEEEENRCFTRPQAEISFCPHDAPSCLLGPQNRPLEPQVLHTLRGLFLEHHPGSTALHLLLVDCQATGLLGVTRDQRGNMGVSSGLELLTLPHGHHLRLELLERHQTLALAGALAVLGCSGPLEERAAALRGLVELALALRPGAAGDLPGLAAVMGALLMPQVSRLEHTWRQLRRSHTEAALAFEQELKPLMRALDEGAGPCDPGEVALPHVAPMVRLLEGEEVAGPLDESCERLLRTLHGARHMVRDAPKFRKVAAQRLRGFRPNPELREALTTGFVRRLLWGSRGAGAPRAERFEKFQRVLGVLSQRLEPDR
UniProt Q9BTE1, whole entry: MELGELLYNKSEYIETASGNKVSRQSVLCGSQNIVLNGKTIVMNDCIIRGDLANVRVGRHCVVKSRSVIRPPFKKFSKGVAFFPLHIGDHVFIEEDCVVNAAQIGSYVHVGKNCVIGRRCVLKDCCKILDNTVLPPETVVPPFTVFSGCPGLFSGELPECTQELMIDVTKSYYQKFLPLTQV
UniProt Q99501: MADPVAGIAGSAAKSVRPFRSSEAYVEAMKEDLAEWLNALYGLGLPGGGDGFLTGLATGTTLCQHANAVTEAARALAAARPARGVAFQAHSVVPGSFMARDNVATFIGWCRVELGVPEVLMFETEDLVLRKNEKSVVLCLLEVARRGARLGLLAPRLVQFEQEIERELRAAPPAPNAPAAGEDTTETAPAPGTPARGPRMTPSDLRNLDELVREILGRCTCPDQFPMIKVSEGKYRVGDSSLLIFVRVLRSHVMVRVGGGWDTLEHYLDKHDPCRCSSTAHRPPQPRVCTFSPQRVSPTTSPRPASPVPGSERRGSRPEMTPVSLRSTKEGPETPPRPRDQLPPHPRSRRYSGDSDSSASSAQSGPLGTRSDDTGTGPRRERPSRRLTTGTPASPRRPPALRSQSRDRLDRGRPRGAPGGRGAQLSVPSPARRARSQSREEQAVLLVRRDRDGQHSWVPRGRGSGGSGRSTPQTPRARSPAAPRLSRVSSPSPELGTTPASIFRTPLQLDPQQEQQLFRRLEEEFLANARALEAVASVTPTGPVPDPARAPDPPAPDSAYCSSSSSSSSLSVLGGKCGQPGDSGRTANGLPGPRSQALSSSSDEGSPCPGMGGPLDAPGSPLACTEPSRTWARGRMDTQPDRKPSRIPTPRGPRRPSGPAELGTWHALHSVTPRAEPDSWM
UniProt Q96T58, whole entry: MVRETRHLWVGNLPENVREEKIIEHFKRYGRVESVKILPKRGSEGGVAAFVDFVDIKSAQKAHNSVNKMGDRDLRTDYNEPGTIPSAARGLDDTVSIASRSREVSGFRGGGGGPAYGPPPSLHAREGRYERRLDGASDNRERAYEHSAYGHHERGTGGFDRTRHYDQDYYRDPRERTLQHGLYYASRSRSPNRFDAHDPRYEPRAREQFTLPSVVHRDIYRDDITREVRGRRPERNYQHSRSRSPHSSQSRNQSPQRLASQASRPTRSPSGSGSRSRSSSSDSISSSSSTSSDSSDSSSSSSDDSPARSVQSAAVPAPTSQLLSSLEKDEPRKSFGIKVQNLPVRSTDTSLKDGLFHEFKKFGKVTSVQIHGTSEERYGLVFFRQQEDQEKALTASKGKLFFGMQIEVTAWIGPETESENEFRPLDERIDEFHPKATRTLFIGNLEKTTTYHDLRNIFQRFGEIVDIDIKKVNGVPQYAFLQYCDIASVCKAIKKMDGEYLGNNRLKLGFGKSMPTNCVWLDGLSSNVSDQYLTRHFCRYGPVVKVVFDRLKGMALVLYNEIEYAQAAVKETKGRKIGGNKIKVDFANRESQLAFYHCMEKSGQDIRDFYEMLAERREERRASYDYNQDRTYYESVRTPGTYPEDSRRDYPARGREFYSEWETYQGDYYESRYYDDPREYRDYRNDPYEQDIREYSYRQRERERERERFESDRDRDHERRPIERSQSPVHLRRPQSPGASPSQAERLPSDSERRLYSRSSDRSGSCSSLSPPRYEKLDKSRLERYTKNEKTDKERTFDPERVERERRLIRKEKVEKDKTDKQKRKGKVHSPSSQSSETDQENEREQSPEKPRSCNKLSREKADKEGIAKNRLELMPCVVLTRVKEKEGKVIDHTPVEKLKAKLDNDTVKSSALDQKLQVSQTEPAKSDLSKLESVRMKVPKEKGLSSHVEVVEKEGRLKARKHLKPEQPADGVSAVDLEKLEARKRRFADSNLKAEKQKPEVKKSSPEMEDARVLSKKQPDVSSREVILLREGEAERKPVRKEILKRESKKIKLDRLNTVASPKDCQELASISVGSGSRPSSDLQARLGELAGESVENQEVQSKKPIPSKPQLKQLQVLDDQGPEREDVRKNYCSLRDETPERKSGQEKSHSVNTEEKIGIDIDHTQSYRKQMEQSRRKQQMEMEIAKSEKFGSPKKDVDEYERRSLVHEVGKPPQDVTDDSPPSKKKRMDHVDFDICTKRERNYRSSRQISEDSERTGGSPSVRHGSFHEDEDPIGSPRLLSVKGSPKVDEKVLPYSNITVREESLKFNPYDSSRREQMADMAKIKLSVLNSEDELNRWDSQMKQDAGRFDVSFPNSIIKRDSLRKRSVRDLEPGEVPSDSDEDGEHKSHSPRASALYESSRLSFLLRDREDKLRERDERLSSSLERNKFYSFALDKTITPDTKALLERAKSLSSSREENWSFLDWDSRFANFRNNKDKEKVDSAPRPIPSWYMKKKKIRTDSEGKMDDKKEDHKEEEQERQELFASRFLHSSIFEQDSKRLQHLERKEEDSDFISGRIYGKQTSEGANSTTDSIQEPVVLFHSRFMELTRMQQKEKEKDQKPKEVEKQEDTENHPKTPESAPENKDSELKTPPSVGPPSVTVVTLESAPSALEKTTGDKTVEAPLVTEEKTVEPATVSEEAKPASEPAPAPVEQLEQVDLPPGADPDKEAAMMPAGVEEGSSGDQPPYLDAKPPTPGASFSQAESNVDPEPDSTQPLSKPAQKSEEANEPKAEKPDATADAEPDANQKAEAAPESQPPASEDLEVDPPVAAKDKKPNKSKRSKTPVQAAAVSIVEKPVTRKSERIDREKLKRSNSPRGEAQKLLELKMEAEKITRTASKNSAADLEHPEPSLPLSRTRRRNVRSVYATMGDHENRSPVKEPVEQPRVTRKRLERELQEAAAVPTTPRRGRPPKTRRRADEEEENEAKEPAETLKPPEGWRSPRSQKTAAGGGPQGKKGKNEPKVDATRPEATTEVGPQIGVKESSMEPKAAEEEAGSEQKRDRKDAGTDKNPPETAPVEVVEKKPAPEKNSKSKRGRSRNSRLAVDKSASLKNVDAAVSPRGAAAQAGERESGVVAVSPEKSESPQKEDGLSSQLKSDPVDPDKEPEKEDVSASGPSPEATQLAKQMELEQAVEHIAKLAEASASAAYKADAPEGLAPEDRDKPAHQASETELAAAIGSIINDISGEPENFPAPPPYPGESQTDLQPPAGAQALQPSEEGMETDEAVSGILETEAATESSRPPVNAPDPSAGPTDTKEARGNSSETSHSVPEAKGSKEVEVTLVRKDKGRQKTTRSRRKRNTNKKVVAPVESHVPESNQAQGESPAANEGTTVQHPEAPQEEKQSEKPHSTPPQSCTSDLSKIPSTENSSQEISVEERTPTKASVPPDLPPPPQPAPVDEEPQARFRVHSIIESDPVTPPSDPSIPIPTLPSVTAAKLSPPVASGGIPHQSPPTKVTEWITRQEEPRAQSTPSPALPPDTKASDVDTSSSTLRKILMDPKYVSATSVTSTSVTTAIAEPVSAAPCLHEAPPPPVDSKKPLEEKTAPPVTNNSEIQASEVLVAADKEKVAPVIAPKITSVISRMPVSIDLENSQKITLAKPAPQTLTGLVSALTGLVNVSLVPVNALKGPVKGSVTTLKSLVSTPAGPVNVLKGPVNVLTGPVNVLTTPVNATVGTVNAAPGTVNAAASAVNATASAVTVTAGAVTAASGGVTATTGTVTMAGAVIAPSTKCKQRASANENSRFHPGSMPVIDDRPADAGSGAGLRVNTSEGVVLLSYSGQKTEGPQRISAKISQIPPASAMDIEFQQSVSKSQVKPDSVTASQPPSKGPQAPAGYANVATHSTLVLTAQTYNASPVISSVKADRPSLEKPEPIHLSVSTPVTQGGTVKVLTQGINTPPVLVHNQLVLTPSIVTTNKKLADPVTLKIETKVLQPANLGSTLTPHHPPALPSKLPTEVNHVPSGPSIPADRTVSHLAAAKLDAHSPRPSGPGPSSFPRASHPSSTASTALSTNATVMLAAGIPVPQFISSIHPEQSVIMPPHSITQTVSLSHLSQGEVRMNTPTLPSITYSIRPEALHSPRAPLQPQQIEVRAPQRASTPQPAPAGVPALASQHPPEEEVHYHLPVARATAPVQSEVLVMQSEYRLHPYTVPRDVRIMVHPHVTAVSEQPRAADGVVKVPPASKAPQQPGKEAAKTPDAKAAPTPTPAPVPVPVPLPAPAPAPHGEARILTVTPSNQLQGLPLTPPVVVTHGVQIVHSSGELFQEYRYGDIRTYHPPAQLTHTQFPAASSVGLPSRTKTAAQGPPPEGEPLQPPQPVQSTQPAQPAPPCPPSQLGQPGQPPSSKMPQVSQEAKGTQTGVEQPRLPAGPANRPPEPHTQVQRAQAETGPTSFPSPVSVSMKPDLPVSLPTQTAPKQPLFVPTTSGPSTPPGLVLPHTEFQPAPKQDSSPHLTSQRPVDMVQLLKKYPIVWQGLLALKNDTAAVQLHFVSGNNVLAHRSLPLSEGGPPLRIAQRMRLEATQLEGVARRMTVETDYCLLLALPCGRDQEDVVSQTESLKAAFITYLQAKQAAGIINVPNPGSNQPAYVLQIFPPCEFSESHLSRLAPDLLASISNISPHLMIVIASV

Compound: Cc1nc(Nc2ncc(C(=O)Nc3c(C)cccc3Cl)s2)cc(N2CCN(CCO)CC2)n1 [dasatinib]
Assay: log2 fold change of tryptic peptide abundance, ligand vs vehicle (limited proteolysis) (log2 ratio); higher = more trypsin-susceptible (destabilized)
Conditions: ligand concentration: 5 uM; sample: K562 cleared lysate

Target	log2 fold change
NAP1L4 (peptide sequence: NASNTEKLTDQVMQNPR, peptide start residue: 20) (UniProt Q99733)	-0.0999
PCYT2 (peptide sequence: EYADSFGK, peptide start residue: 172) (UniProt Q99447)	0.112
EIF3C (peptide sequence: QPLLGPPESMREHVVAASK, peptide start residue: 724) (UniProt Q99613)	0.258
UniProt Q9BU61 (peptide sequence: LSPADDELYQR, peptide start residue: 34)	-0.0105
SH2D3A (peptide sequence: GNMGVSSGLELLTLPHGHHLR, peptide start residue: 340) (UniProt Q9BRG2)	-0.626
SH3GL1 (peptide sequence: DSLDIEVK, peptide start residue: 129) (UniProt Q99961)	0.103
DCTN5 (peptide sequence: CVLKDCCK, peptide start residue: 120) (UniProt Q9BTE1)	-0.506
UniProt Q9BTL4 (peptide sequence: IMTLSVWK, peptide start residue: 10)	-0.0879
UniProt Q99501 (peptide sequence: RPSGPAELGTWHALHSVTPR, peptide start residue: 655)	0.326
SPEN (peptide sequence: VLPYSNITVR, peptide start residue: 1294) (UniProt Q96T58)	-0.197
UniProt Q9BQC6 (peptide sequence: FIADQLDHLNVTK, peptide start residue: 87)	-0.731
